The values are deposited in ChEMBL (CHEMBL3988442, “University of Dundee, Small-Polar-MMV Screening Library” (2021)).

Values are the deposited “Percent Effect”, in %.
The controls that fix the scale are not given in the record; negative values are as filed.
Compounds were drawn at random from those tested, without regard to their results.
A dash means the value is not listed here; it may have been measured.

Mtb growth Cornell: 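Whole-cell assay for inhibitors of Mycobacterium tuberculosis growth, labelled Cornell in the record; the read-out is not stated. The concentration is filed as 10 mM, unlikely as a test dose, so the dose is not known. The record gives no direction; compounds strong in two other growth screens of this library score well above the rest, so higher reads as stronger inhibition. About 53,000 compounds were tested under these conditions; 1.7% (about 900) showed 50% or more at least once.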
Mtb heat-shock: 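Assay on Mycobacterium tuberculosis, filed only as a heat shock assay from Cornell; the read-out is not stated. The concentration is filed as 10 mM, unlikely as a test dose, so the dose is not known. Direction is inferred from retests: higher values go with stronger inhibition. About 69,000 compounds were tested under these conditions; 1.4% (about 930) showed 50% or more at least once.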

| # | compound | Mtb growth Cornell | Mtb heat-shock |
|---|---|---|---|
| 1 | `Cc1cnn(CCNCC(=O)N(C)C(C)c2ccccc2)c1` (configuration not stated) | -11.98% | -17.46% |
| 2 | `Cc1cc(CN2CCc3nc(-c4ccncc4)nc(O)c3CC2)c(C)s1` | -48.9% | -13% |
| 3 | `NC(=O)N1CCCC(C(=O)NCCOc2ccc(F)c(F)c2)C1` (configuration not stated) | 3.828% | 3.839% |
| 4 | `CCCC(=O)N1CCCCC1c1nccc(C)n1` (configuration not stated) | -37.35% | -24.78% |
| 5 | `COCC(=O)N1C[C@@H](c2cccc(OC)c2)[C@@]2(CCCCC(=O)N2)C1` | 18.85% | -3.351% |
| 6 | `Cc1ccc(CNC(=O)COc2ccc3c(c2)OCC3O)cc1` (configuration not stated) | - | -10.77% |
| 7 | `CCN1CCC(NC(=O)CN2CCCC2Cn2cccn2)CC1` (configuration not stated) | -22.67% | -29.45% |
| 8 | `COCCCNC(=O)c1ccn(-c2ccc3ccccn23)n1` | 48.41% | 4.638% |
| 9 | `CN1CCN(c2cccc(Cl)c2CNCCS(C)(=O)=O)CC1` | 0.9594% | -20.29% |
| 10 | `COc1cc(C)ccc1OCc1nc(C(=O)N2CCCO2)co1` | -5.83% | -16.58% |
| 11 | `Cc1ncsc1C(=O)NCC1SCCc2ccccc21` (configuration not stated) | - | -18.81% |
| 12 | `Cc1cc(CN(C)C(=O)NC2CCN(c3ncccn3)CC2)no1` | - | -12.08% |
| 13 | `NC(=O)C1CN(C(=O)NCC2(c3ccc(F)cc3)CCC2)CCO1` (configuration not stated) | 0.3508% | -11.98% |
| 14 | `Cc1csc2nc3n(c(=O)c12)CCN(C(=O)c1ccncc1)CC3` | 6.744% | -8.395% |
| 15 | `O=C(O)C(F)(F)F.[H][C@@]12CN(C(=O)Cc3ccccc3)C[C@]1([H])OCCN2CC1CCCO1` (some centres not stated) | -12.62% | -18.47% |
| 16 | `O=C(CN1CCc2cncnc2C1)N1CCc2sccc2C1` | 18.73% | 2.962% |
| 17 | `COc1cc(N2C[C@@H](C)[C@](O)(C3CC3)C2)ncn1` | -15.55% | -14.96% |
| 18 | `CC(C)CNC(=O)c1c(-n2cnnn2)sc2c1CCC2` | 1.011% | 6.626% |
| 19 | `CC(Cc1ccco1)NC(=O)C1=NN(c2ccccc2)C(=O)CC1` (configuration not stated) | -17.33% | -4.16% |
| 20 | `COc1ncccc1NC(=O)C1CCN(S(C)(=O)=O)CC1` | 7.659% | 5.042% |
| 21 | `CCc1oc(C(=O)N(C)Cc2nonc2C)cc1CN(CC)CC` | 12.11% | 0.6766% |
| 22 | `COc1ccc(S(=O)(=O)NC(=O)COC2CCCCC2)cc1` | -13.75% | -14.74% |
| 23 | `O=c1[nH]c(-c2ccncc2)nc2c1CCN(S(=O)(=O)N1CCCC1)C2` | 17.29% | -2.171% |
| 24 | `CCCc1n[nH]c(C2CN(CCC(F)(F)F)CCO2)n1` (configuration not stated) | 5.884% | 1.279% |
| 25 | `CCC(O)CN1CCN(C(=O)c2cc3ccccc3n2CC)CC1` (configuration not stated) | - | -12.25% |
| 26 | `O=C(O)C(F)(F)F.O=C(O)C(F)(F)F.[H][C@@]12OCCN(Cc3csc(C)n3)[C@@]1([H])CC[C@@H]2OCc1cccnc1` | - | -27.98% |
| 27 | `CCC1c2ccsc2CCN1Cc1cc2c(cc1OC)OCCO2` (configuration not stated) | -4.796% | -20.82% |
| 28 | `CC(C)=CCCC1(C)CCC(=O)N(CCc2nc(N)cc(O)n2)C1` (configuration not stated) | 1.178% | 10.13% |
| 29 | `Cc1cccc(N2CCN(C(=O)CCc3ccsc3)C(C)C2)n1` (configuration not stated) | 16.81% | 12.64% |
| 30 | `CCS(=O)(=O)N1CCCC2(CCCN2Cc2cccc(F)c2)C1.O=C(O)C(F)(F)F` (configuration not stated) | 25.57% | -8.469% |
| 31 | `Cc1ccc(CNC(c2ccc(F)cc2)c2nccn2C)o1` (configuration not stated) | 20.33% | 74.11% |
| 32 | `Cc1nn(C)cc1C1=NS(=O)(=O)N(C)C(C(=O)Nc2ccc(Cl)cc2)=C1` | 1.373% | 18.18% |
| 33 | `CNC(=O)COc1ccc(CNCc2cc(F)ccc2F)cc1` | 14.37% | 4.936% |
| 34 | `[H][C@]12CCCCN1CCC[C@H]2CNC(=O)Cn1ccc2cc(OC)ccc21` | 32.36% | 0.3073% |
| 35 | `CCC(CNC(=O)N1CCOCC2(CCOCC2)C1)c1ccccc1` (configuration not stated) | 19.97% | 0.401% |
| 36 | `Cc1cn[nH]c1C1CCCCN1C(=O)CCc1c(C)n[nH]c1C` (configuration not stated) | - | -13.87% |
| 37 | `COc1ccc(CN2CCc3ncnc(C4CCOC4)c3CC2)cc1.O=C(O)C(F)(F)F` (configuration not stated) | 12.07% | -0.1867% |
| 38 | `O=c1cc(N2CCNCC2)cnn1CCCn1cccn1` | -9.375% | 2.338% |
| 39 | `CC(NC(=O)NCCCc1n[nH]c(N)c1C#N)c1ccccc1F` (configuration not stated) | - | -9.964% |
| 40 | `Cn1cc(C(=O)NC2CCN(C(=O)NCCSC(F)(F)F)CC2)cn1` | - | 12.29% |
| 41 | `CCCc1nc(C)c(C(=O)NCC2CCN(C3CC3)C2)s1` (configuration not stated) | -16.69% | -11.69% |

Repeated from the top, 4 entries:

{"compound": "Cc1cnn(CCNCC(=O)N(C)C(C)c2ccccc2)c1", "stereo": "configuration not stated", "Mtb growth Cornell": -11.98, "Mtb heat-shock": -17.46}
{"compound": "Cc1cc(CN2CCc3nc(-c4ccncc4)nc(O)c3CC2)c(C)s1", "Mtb growth Cornell": -48.9, "Mtb heat-shock": -13}
{"compound": "NC(=O)N1CCCC(C(=O)NCCOc2ccc(F)c(F)c2)C1", "stereo": "configuration not stated", "Mtb growth Cornell": 3.828, "Mtb heat-shock": 3.839}
{"compound": "CCCC(=O)N1CCCCC1c1nccc(C)n1", "stereo": "configuration not stated", "Mtb growth Cornell": -37.35, "Mtb heat-shock": -24.78}